From patent US20190048052A1 (Board of Regents of the University of Nebraska, priority 2016, published 2019)
Plain letter strings leave the end groups untold.

Test: peptide made by a vendor
Details: whole synthesis, detection at 220 nm

**Q.** For FFFLSRIF, which “final HPLC purity” value is on record?
**A.** 97.41%

**Q.** With WWWLKKIW as the sequence, how does the “final HPLC purity” value read?
**A.** 96.03%

**Q.** Which “final HPLC purity” value does the source give for WWWLKRIW here?
**A.** 95.62%

**Q.** With WWWLRKIW as the sequence, how does the “final HPLC purity” value read?
**A.** 96.56%

**Q.** Which “final HPLC purity” value does the source give for WWWLRRIW here?
**A.** 96.88%

**Q.** With WWWLSRIW as the sequence, how does the “final HPLC purity” value read?
**A.** 98.33%
